No constants are given. Whether binding was seen depends on the method and setting. Binding seen in cells or lysates may run through a third protein. Some results given as binding are weak or reduced against the parent protein; the word gives no strength. For some assays here: Where a sequence is shown, tags or fusion partners need not be part of it.
Experiments:
[1] = target: HAdV-C5 E1B-55K wt expressed from pcDNA3 (HAdV-C5 (human adenovirus type C5)) (UniProt P03243); assay: co-IP; H1299 co-transfected with E1B-55K and Flag-tagged IKK proteins, 48 h; immunoprecipitation with α-E1B-55K 2A6, blot with α-Flag M2
Flag-tagged IKKα (human) = target: T1, Flag-tagged IKKα (human) (UniProt O15111); assay: co-IP; H1299 co-transfected with wt or mutant E1B-55K and Flag-tagged IKKα, 48 h; immunoprecipitation with α-Flag M2, blot with α-E1B-55K (7C11 or 2A6)
T1 sequence: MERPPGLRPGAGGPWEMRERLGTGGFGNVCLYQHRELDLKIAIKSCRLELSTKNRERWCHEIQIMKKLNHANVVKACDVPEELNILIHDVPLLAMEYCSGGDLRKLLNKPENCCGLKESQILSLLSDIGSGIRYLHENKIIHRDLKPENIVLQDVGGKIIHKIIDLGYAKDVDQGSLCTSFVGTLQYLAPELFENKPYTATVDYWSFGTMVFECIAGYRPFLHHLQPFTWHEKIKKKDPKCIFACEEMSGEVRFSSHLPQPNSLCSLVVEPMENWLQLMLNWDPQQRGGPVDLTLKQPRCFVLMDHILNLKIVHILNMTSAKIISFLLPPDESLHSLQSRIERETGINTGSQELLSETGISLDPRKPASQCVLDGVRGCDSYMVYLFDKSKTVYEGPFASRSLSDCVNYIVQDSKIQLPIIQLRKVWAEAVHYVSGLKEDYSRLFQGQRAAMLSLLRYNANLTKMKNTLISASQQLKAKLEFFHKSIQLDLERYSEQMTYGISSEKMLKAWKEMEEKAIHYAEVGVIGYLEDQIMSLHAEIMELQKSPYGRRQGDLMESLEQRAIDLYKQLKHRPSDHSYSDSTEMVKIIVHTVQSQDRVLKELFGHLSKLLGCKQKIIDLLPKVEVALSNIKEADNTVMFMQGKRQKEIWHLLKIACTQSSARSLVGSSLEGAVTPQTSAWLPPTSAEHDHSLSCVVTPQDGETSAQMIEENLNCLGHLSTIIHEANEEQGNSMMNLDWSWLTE

Protein sequences, listed by entry. Tags and fused reporters are not part of them.
UniProt Q9Y6K9: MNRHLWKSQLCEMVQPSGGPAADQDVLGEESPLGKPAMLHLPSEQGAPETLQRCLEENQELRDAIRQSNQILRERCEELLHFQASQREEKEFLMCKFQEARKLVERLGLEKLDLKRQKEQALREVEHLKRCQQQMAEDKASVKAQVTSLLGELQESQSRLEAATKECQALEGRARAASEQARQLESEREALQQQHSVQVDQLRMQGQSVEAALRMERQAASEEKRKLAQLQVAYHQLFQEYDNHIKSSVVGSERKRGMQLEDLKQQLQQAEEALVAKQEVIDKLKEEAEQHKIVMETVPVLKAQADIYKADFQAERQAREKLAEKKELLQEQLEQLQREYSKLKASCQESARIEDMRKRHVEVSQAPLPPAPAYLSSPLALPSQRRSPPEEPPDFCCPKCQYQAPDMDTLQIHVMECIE

**Q.** For “Flag-tagged NEMO (from UniProt Q9Y6K9 1-419)”, which binding [1] is on record?
**A.** no binding

**Q.** “HAdV-C5 E1B-55K wt expressed from pcDNA3 (from UniProt P03243 1-496)” was tested. Which binding (Flag-tagged IKKα (human)) did it give?
**A.** binds
